Data source: PubChem BioAssay AID1159578 (Peter MacCallum Cancer Centre, 2015)

Screen: 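siRNA pools altering how lymphatic endothelial cells close a scratch wound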 (primary screen)
Cell system: human lymphatic endothelial cells
Knock-down reagent: siRNA pool against human genes, 40 nM
Time to read-out: 48 h after transfection
Detection: 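Cells stained with dye and imaged after a scratch; covered wound area and nuclei counted, duplicates averaged, migration set against mock wells and turned into a robust z-score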
Reading the numbers: migration robust z-score: higher = faster migration into the scratch; nuclei per well: higher = more cells in the well
Active means: 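Migration changed when robust z exceeds 2 or falls below -2 and mean nuclei number is at least 3300; otherwise not called changed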
Calls: active = migration changed; inactive = no migration change, or too few cells
Shown is one part, drawn at random, of about 18,000 deposited reagents. About 1,030 of all reagents (5.7%) were called active. 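Inactive calls also include pools with fewer than 3300 nuclei, whose migration was not assessed.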 Raw values are not corrected between plates. Further read-outs or replicates are left out here. Reagent sequences are not shown.

Gene | migration robust z-score | nuclei per well, duplicate mean | Outcome
PTGES (prostaglandin E synthase) | -0.86 | 7710 | inactive
UBA6 (ubiquitin like modifier activating enzyme 6) | 0.15 | 6037 | inactive
DNAJC10 (DnaJ heat shock protein family (Hsp40) member C10) | -1.09 | 4674 | inactive
HERPUD2 (HERPUD family member 2) | -0.26 | 5638 | inactive
OR7A17 (olfactory receptor family 7 subfamily A member 17) | -0.43 | 6384 | inactive
PNKP (polynucleotide kinase 3'-phosphatase) | -2.49 | 1737 | inactive
ZNF518B (zinc finger protein 518B) | -1.54 | 4234 | inactive
LZTS3 (leucine zipper tumor suppressor family member 3) | -2.46 | 3960 | active
ARF5 (ARF GTPase 5) | 0.2 | 4739 | inactive
CFAP141 (cilia and flagella associated protein 141) | -0.92 | 4370 | inactive
DCSTAMP (dendrocyte expressed seven transmembrane protein) | 0.97 | 6168 | inactive
GLB1 (galactosidase beta 1) | 2.04 | 5372 | active
LSM4 | 2.15 | 6755 | active
RAB11FIP1 (RAB11 family interacting protein 1) | 0.64 | 6284 | inactive
TNC (tenascin C) | 0.21 | 5445 | inactive
SLC1A1 | 0.94 | 5424 | inactive
OR4K5 (olfactory receptor family 4 subfamily K member 5) | -0.74 | 4576 | inactive
IFT88 (intraflagellar transport 88) | 1.16 | 7178 | inactive
LYSMD4 (LysM domain containing 4) | -0.95 | 5846 | inactive
DAZL (deleted in azoospermia like) | 1.5 | 5387 | inactive
TSC22D1 (TSC22 domain family member 1) | -1.77 | 5175 | inactive
SHROOM1 (shroom family member 1) | 0.96 | 4606 | inactive
NUDT10 (nudix hydrolase 10) | 0.88 | 5176 | inactive
TMEM164 (transmembrane protein 164) | -0.2 | 3824 | inactive
OR3A4P (olfactory receptor family 3 subfamily A member 4 pseudogene) | -1.21 | 4782 | inactive
GAGE6 (G antigen 6) | -0.92 | 5084 | inactive
BCL2L10 (BCL2 like 10) | -0.96 | 6517 | inactive
TIGIT (T cell immunoreceptor with Ig and ITIM domains) | -1.26 | 5902 | inactive
POLR1E (RNA polymerase I subunit E) | -2.12 | 5057 | active
GTPBP2 (GTP binding protein 2) | -1.25 | 4396 | inactive
PARP8 (poly(ADP-ribose) polymerase family member 8) | -0.68 | 6337 | inactive
RRAS2 (RAS related 2) | -0.62 | 6202 | inactive
TCP11L2 (t-complex 11 like 2) | 0.25 | 4476 | inactive
KCNK2 (potassium two pore domain channel subfamily K member 2) | 0.6 | 6003 | inactive
MAU2 | 0.26 | 5594 | inactive
PRAF2 (PRA1 domain family member 2) | 0.22 | 5147 | inactive
C6orf136 (chromosome 6 open reading frame 136) | 0.22 | 5710 | inactive
RNF214 (ring finger protein 214) | 0.76 | 6356 | inactive
ELOVL6 (ELOVL fatty acid elongase 6) | -0.18 | 5468 | inactive

Copied from the listing, 3 entries:
Gene | migration robust z-score | nuclei per well, duplicate mean | Outcome
ARF5 (ARF GTPase 5) | 0.2 | 4739 | inactive
CFAP141 (cilia and flagella associated protein 141) | -0.92 | 4370 | inactive
DCSTAMP (dendrocyte expressed seven transmembrane protein) | 0.97 | 6168 | inactive
